# Experimental data: PubChem BioAssay AID485314 (National Center for Advancing Translational Sciences (NCATS), 2010)
# The campaign covered roughly 340,000 compounds. About 4,500 (1.3%) were called active. This list was built around the results that the source calls inconclusive (neither active nor inactive); the mix of calls is not that of the screen. Calls come from the whole dose curve; as a rule, active = well fitted inhibition curve with a large enough effect; inconclusive = small, poorly fitted or top-dose-only effect, or another doubt; inactive = no such curve, though single readings can be large or run the other way. A potency beside an inconclusive call is a rough fit, not a confirmed value.
# Target: DNA polymerase beta (Homo sapiens) (UniProt P06746)
# Assay: qHTS Assay for Inhibitors of DNA Polymerase Beta
# Settings: Pol beta primer extension/strand displacement, fluorescence kinetic; activity change, negative = inhibition: at 114 µM (top of the series)
# In short: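 Enzyme-only controls used 10 nM Pol beta; buffer lacking enzyme served as negative control. Compound preincubated 15 min, then 50 nM substrate added; 0 and 10 min reads at room temperature.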
# % is set by controls: 0 for no effect and ±100 for the full control effect; potency is the fitted concentration of half-maximal effect.
Compound,Potency,"activity change, negative = inhibition"
CCCC(=O)NC(=S)NNC(=O)c1ccc([N+](=O)[O-])cc1,"inconclusive: 89.1 µM [inhibitor, single point]",
Cc1ccc(S(=O)(=O)N2CCCN(S(=O)(=O)c3ccc(C)cc3)CC2)cc1,"inconclusive: 89.1 µM [inhibitor, single point]",
COc1ccc(-c2cc(C(F)(F)F)nc(SCCC(=O)Nc3ccc(F)cc3F)n2)cc1,inactive,
N#CCCN(C(=O)COC(=O)c1cccc(S(=O)(=O)Nc2ccc([N+](=O)[O-])cc2)c1)c1ccccc1,"inconclusive: 39.8 µM [inhibitor, single point]",
O=C(/C=C/c1ccco1)NCCCN1CCN(CCCNC(=O)/C=C/c2ccco2)CC1,inactive,
CCOCCCNC(=O)c1ccccc1NC(=O)C1=C(C)OCCS1,"inconclusive: 89.1 µM [inhibitor, single point]",
CC(=O)Nc1cc2c(cc1NC(=O)Cn1nnc(-c3ccc(C)o3)n1)OCCO2,"inconclusive: 0.316 µM [inhibitor, full curve]",
Cc1ccc(/C=C2\SC(=S)N(/N=C/c3cc([N+](=O)[O-])ccc3O)C2=O)o1,active: 8.91 µM,
CSCCC(NC(=O)c1ccc(Cl)cc1)C(=O)OCC(=O)Nc1ccc(C#N)cc1 (stereo not drawn),inactive,
CS(=O)(=O)NNC(=O)C1Cc2c(ccc3ccccc23)O1 (stereo not drawn),,inconclusive: -44.4% [inhibitor]
O=C(c1cc(-c2ccc(Br)cc2)n[nH]1)N1CCN(S(=O)(=O)c2ccc(Cl)s2)CC1,"inconclusive: 0.282 µM [inhibitor, single point]",
CN(C)c1ccc(C(C#N)c2ccccc2)nn1 (stereo not drawn),"inconclusive: 2 µM [inhibitor, partial curve, poor fit]",
COc1cc(/C=C2\CCCc3c2nc2ccccc2c3C(=O)O)cc([N+](=O)[O-])c1O,active: 14.1 µM,
N#C/C(=C\c1ccc(-c2ccc(C(=O)O)cc2)o1)C(=O)Nc1ccc(F)cc1,"inconclusive: 3.98 µM [inhibitor, single point]",
O=C(Nc1ccccc1)C1=C[C@@H](C2CC2)C[C@@H](OCc2ccc(CO)cc2)O1,"inconclusive: 5.01 µM [inhibitor, single point]",
O=C(COC(=O)C1COc2ccccc2O1)NC1CCS(=O)(=O)C1 (stereo not drawn),"inconclusive: 4.47 µM [inhibitor, full curve]",
Cn1c(=O)c2c(nc(N3CCOCC3)n2Cc2ccccc2F)n(C)c1=O,inactive,
COC(=O)N/N=C/c1cc(C)n(-c2ccc(Br)cc2)c1C,"inconclusive: 89.1 µM [inhibitor, single point]",
O=C(CSc1nc2ccccc2c(=O)n1-c1ccc(OC(F)F)cc1)NCc1cccs1,inactive,
CC(C)c1ccccc1NC(=O)CCc1nc2ccccc2s1,"inconclusive: 22.4 µM [inhibitor, full curve, poor fit]",
CC(=O)c1ccc(OCCCC(=O)Nc2cc(S(=O)(=O)N(C)C)ccc2C)cc1,"inconclusive: 89.1 µM [inhibitor, single point]",
Cc1ccc(Sc2cc(C(=O)c3ccccc3C(=O)O)ccc2[N+](=O)[O-])cc1,"inconclusive: 89.1 µM [inhibitor, single point]",
Cc1cc(Cl)ccc1NS(=O)(=O)c1c(C(=O)N2CCCCCC2)c(C)n(C)c1C,inactive,

Compound,Potency,"activity change, negative = inhibition"
CCOC(=O)c1ccc(N2CCN(c3ccccc3F)CC2)c(NC(=O)Nc2cccc(OC)c2)c1,"inconclusive: 89.1 µM [inhibitor, single point]",
Cc1nn(C(C)C(=O)NC2C(=O)N3C(C(=O)O)=C(CSc4nnnn4C)CSC23)cc1Cl (stereo not drawn),active: 25.1 µM,
O=C(Nc1ccc(S(=O)(=O)N2CCCCC2)cc1)C1CC(=O)N(c2ccc(Cl)cc2)C1 (stereo not drawn),"inconclusive: 1.12 µM [inhibitor, full curve, poor fit]",
O=C(Nc1ccccc1C(=O)NC(Cc1ccccc1)C(=O)O)c1ccco1 (stereo not drawn),"inconclusive: 10 µM [inhibitor, full curve, poor fit]",
O=C(Cn1cc(SCc2ccc(Cl)cc2)c2ccccc21)N1CCOCC1,"inconclusive: 10 µM [inhibitor, partial curve]",
CC(=O)Oc1ccc2c(=O)c(-c3nc4ccccc4s3)coc2c1,"inconclusive: 89.1 µM [inhibitor, single point]",
Fc1ccc(-c2nc3n(n2)Cc2ccccc2-3)cc1,"inconclusive: 79.4 µM [inhibitor, single point]",
Cc1ccc(S(=O)(=O)/N=C2/C=C(Sc3ncn[nH]3)C(=O)c3ccccc32)cc1,"inconclusive: 39.8 µM [inhibitor, partial curve]",
N#Cc1nc(/C=C/c2ccc(F)cc2)oc1N1CCCCCC1,inactive,
CCN(CC)c1ccc(NC(=O)Cn2nc3c(cc2=O)CCCC3)c(C)c1,inactive,
Cc1ccccc1NC(=O)CSc1nc(-c2cccs2)nc2cc(=O)[nH]n12,"inconclusive: 25.1 µM [inhibitor, full curve, poor fit]",
CN(C)CCNc1ncnc2sc(-c3ccccc3)cc12,"inconclusive: 5.01 µM [inhibitor, full curve]",
O=C1CCCC(O)=C1N=Nc1ccc(C(=O)O)cc1,active: 2.82 µM,
COc1ccccc1C(=O)Nc1nc2ccc(S(C)(=O)=O)cc2s1,inactive,
COc1oc(-c2ccccc2)nc1C(F)(F)F,inactive,
O=c1[nH][nH]c2c(N=Cc3ccccc3O)ccc(F)c12,active: 7.08 µM,
O=C(Nc1ccc(NC(=O)c2cccs2)cc1)c1ccc(Br)o1,"inconclusive: 15.8 µM [inhibitor, full curve]",
Nc1ccc2nc(-c3ccc(N)c(Cl)c3)[nH]c2c1,"inconclusive: 22.4 µM [inhibitor, full curve]",
COC(=O)Cn1c(C)nc([N+](=O)[O-])c1Br,"inconclusive: 5.01 µM [inhibitor, full curve, poor fit]",
O=C(NCc1cccs1)c1cc(-c2ccncc2)nc2ccc(Br)cc12,active: 39.8 µM,
CC(C)c1ccc(C2CC(=O)N3CN(C4CCCCC4)CSC3=C2C#N)cc1 (stereo not drawn),"inconclusive: 12.6 µM [inhibitor, full curve]",
O=C(Nc1ccc(S(=O)(=O)Nc2ncccn2)cc1)c1nn(Cc2ccccc2)c(=O)c2ccccc12,,inconclusive: -152% [inhibitor]
O=C(CCCCCN1C(=O)c2cccc([N+](=O)[O-])c2C1=O)Nc1ccccc1F,"inconclusive: 20 µM [inhibitor, full curve]",

Compound,Potency,"activity change, negative = inhibition"
CCOC(=O)CSC1=NC(=O)/C(=C/c2ccc(OC)cc2)S1,inactive,
COc1ccc(C(=O)Nn2c(C)nc3ccccc3c2=O)c(OC)c1,"inconclusive: 28.2 µM [inhibitor, partial curve, poor fit]",
Cc1ccccc1NC(=O)c1c(C)oc2ccc(O)c(CN3CCCCCC3)c12,"inconclusive: 1.41 µM [inhibitor, full curve, poor fit]",
FC(F)(F)c1cccc(Nc2nc3nonc3nc2Nc2ccc(Cl)cc2)c1,"inconclusive: 0.316 µM [inhibitor, full curve, poor fit]",
CN1c2ccccc2C(O)=C(C(=O)Nc2ccccc2)S1(=O)=O,"inconclusive: 0.126 µM [inhibitor, full curve, poor fit]",
CCCc1cc(=O)oc2c(C)c(OCC(=O)N3CCC[C@@H]3C(=O)O)ccc12,inactive,
Cc1nc(-c2ccc(S(=O)(=O)N3CCN(c4ccccc4F)CC3)cc2)co1,"inconclusive: 25.1 µM [inhibitor, partial curve]",
CCC(CC)C(=O)Nc1ccc(S(=O)(=O)N2CCC(c3nc4ccccc4s3)CC2)cc1,inactive,
COc1c(OC2OC(C(=O)O)C(O)C(O)C2O)cc(O)c2c(=O)cc(-c3ccccc3)oc12 (stereo not drawn),inactive,
COc1ccc(/C=C2\SC(=S)N(NS(=O)(=O)c3ccc(C)cc3)C2=O)c(OC)c1,"inconclusive: 63.1 µM [inhibitor, single point]",
CN(NC(=O)c1ccccc1)c1nc2ccccc2nc1C(F)(F)F,"inconclusive: 79.4 µM [inhibitor, single point]",
FC(F)(F)c1cc(-c2ccco2)nc(NCc2ccc(Cl)cc2)n1,"inconclusive: 3.55 µM [inhibitor, full curve]",
Cc1c(CC(=O)NCCc2ccccc2)c(=O)oc2c(C)c3occ(C(C)(C)C)c3cc12,inactive,
Cc1cc(C)c2c(NC(=O)c3ccccc3Cl)c(C(=O)NCc3ccc(Cl)cc3)sc2n1,active: 22.4 µM,
COCCNC(=O)CSc1nnc(-c2ccc(C)cc2)c(-c2ccc(C)cc2)n1,"inconclusive: 14.1 µM [inhibitor, partial curve]",
N#Cc1cccc(S(=O)(=O)NCC(=O)OCC(=O)c2ccc[nH]2)c1,"inconclusive: 0.891 µM [inhibitor, full curve, poor fit]",
Cc1ccc(NC(=O)CN(C)C(=O)CCC(=O)c2cccs2)cc1,active: 17.8 µM,
O=C(Cn1ncc2ccccc21)N1CCc2ccccc21,"inconclusive: 5.62 µM [inhibitor, full curve]",
Nc1nonc1C(=O)NCCNc1ccc([N+](=O)[O-])cn1,"inconclusive: 1 µM [inhibitor, full curve, poor fit]",
CCOc1cc(N2CCOCC2)c(OCC)cc1NC(=O)COc1ncnc2ccccc12,inactive,
CCOC(=O)CC(NC(=O)Cn1nnc(-c2ccc(Cl)cc2)n1)c1ccc(OC)cc1 (stereo not drawn),"inconclusive: 39.8 µM [inhibitor, partial curve]",
COc1cc(OC)c(NC(=O)c2ccc(-n3cnc4cccnc43)cc2)cc1Cl,"inconclusive: 89.1 µM [inhibitor, single point]",

# 5 neighbouring records out of the list so far:
Compound,Potency,"activity change, negative = inhibition"
Cc1ccc(S(=O)(=O)N2CCCN(S(=O)(=O)c3ccc(C)cc3)CC2)cc1,"inconclusive: 89.1 µM [inhibitor, single point]",
COc1ccc(-c2cc(C(F)(F)F)nc(SCCC(=O)Nc3ccc(F)cc3F)n2)cc1,inactive,
N#CCCN(C(=O)COC(=O)c1cccc(S(=O)(=O)Nc2ccc([N+](=O)[O-])cc2)c1)c1ccccc1,"inconclusive: 39.8 µM [inhibitor, single point]",
O=C(/C=C/c1ccco1)NCCCN1CCN(CCCNC(=O)/C=C/c2ccco2)CC1,inactive,
CCOCCCNC(=O)c1ccccc1NC(=O)C1=C(C)OCCS1,"inconclusive: 89.1 µM [inhibitor, single point]",
